PubChem BioAssay AID1259425, University of Nebraska Medical Center, 2018
Purpose: 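Compare each knockdown with KSR1 silencing using changes in marker transcripts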 (primary screen). Cells: HCT116 human colon cancer cells. Reagents: siRNA pool against human genes, 50 nM siRNA. Detection: 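After 50 nM siRNA pool, branched-DNA assay measures six marker transcripts per well, minus blank, normalised to the geometric mean of two housekeeping transcripts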. Reading the numbers: BNIP3L mRNA: higher = more BNIP3L transcript after knockdown.
This is a random part of about 14,000 deposited reagents. Not all columns of the deposit are shown. No sequences are given here. The record does not give: the time to read-out.

ARF3: BNIP3L mRNA, set 1 = 0.164
ARHGAP22: BNIP3L mRNA, set 1 = 0.206
CPN2: BNIP3L mRNA, set 1 = 0.127
NADK: BNIP3L mRNA, set 1 = 0.0913
INHBE: BNIP3L mRNA, set 1 = 0.101
XRCC5: BNIP3L mRNA, set 1 = 0.19
HS3ST1: BNIP3L mRNA, set 1 = 0.131
PUS7: BNIP3L mRNA, set 1 = 0.0739
CD44: BNIP3L mRNA, set 1 = 0.045
TMEM97: BNIP3L mRNA, set 1 = 0.0924
UBE2L6: BNIP3L mRNA, set 1 = 0.0856
FGF19: BNIP3L mRNA, set 1 = 0.0961

Entries listed so far whose gene name starts with C or c (2):
CPN2: BNIP3L mRNA, set 1 = 0.127
CD44: BNIP3L mRNA, set 1 = 0.045
